This is an account of results in the supplement of paper PMC10849652.

By UniProt entry, the sequences of proteins in these tests, tags left out. Where a name states a change or a piece, a line headed by the entry shows the natural chain unless it says otherwise.
UniProt Q16719: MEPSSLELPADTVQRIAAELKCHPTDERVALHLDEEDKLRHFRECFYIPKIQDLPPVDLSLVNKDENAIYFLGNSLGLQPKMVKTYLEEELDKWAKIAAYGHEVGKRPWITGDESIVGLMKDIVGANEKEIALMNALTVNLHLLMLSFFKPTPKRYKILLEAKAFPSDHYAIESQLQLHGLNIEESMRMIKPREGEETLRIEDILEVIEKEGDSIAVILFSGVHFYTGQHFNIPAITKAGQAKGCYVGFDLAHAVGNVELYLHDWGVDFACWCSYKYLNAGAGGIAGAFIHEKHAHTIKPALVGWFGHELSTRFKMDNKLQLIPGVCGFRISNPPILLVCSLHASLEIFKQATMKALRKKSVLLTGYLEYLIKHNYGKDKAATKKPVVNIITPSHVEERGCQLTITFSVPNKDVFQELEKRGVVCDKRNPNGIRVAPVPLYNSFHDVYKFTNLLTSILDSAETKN
UniProt Q86UP2: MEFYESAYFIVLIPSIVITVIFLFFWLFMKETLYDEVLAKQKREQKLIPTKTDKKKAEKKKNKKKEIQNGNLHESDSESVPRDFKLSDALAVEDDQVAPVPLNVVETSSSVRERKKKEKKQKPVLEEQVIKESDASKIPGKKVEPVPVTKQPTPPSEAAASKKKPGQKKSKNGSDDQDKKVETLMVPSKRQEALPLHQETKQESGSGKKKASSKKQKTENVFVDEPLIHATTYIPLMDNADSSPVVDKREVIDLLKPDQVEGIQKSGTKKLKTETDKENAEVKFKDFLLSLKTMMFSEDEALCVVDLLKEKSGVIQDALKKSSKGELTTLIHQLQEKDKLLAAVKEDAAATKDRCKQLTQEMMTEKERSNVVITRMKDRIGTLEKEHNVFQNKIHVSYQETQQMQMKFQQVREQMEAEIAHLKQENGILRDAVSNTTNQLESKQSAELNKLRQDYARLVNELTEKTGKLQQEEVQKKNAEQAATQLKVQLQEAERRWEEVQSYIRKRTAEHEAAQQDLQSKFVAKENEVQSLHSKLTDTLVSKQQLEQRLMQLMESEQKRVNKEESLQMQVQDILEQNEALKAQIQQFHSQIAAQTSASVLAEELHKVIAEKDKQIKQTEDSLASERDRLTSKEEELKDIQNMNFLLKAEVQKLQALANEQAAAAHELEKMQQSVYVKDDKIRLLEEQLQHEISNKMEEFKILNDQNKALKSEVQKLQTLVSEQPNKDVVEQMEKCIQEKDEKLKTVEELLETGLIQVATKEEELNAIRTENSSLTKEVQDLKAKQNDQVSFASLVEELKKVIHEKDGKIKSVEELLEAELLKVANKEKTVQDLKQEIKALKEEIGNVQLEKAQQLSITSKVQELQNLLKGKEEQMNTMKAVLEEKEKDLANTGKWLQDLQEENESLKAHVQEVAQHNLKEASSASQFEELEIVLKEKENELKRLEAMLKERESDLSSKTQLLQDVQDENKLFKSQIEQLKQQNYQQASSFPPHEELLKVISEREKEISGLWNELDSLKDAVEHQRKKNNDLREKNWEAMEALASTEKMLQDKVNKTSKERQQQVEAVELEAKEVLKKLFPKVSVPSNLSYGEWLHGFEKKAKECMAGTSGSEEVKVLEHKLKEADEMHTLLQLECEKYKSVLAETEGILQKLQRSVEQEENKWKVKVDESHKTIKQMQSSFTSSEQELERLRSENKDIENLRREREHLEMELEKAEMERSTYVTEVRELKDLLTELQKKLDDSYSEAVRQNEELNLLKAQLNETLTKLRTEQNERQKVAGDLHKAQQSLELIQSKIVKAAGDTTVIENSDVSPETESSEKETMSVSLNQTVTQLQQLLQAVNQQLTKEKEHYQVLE
UniProt Q9BQK8: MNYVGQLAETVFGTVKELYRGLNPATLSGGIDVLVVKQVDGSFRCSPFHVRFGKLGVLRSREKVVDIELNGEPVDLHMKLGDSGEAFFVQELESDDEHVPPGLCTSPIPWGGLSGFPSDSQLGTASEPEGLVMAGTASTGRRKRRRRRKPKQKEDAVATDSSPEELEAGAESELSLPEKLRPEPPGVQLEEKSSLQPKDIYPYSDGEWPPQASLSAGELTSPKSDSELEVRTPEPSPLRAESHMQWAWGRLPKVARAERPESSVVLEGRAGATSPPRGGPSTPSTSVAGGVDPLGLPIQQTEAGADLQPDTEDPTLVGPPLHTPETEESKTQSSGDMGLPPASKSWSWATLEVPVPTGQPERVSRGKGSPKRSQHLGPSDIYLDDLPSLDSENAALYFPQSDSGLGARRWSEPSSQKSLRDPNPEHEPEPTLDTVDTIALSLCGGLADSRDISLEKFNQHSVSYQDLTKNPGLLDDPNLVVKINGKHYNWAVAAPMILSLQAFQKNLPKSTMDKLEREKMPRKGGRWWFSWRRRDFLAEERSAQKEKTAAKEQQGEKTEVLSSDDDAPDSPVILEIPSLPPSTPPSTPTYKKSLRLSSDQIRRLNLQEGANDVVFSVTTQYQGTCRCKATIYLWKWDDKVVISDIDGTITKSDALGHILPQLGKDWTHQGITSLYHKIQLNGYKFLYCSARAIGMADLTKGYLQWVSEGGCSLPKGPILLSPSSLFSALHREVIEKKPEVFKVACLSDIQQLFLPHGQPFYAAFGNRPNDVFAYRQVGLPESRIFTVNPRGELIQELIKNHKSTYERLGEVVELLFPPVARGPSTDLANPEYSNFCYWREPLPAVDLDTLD
UniProt Q6YP21: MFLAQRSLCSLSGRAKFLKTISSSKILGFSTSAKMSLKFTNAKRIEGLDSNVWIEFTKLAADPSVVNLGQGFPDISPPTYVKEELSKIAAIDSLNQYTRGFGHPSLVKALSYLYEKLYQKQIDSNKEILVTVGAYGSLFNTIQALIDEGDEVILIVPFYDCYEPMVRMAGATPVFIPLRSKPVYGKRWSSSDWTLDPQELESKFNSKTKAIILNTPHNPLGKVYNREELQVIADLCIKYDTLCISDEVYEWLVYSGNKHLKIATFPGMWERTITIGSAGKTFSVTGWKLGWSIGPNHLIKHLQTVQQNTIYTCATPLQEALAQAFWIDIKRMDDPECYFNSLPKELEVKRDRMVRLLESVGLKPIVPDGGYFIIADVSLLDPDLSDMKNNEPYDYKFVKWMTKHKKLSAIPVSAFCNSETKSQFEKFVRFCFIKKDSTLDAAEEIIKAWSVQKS
UniProt Q14847: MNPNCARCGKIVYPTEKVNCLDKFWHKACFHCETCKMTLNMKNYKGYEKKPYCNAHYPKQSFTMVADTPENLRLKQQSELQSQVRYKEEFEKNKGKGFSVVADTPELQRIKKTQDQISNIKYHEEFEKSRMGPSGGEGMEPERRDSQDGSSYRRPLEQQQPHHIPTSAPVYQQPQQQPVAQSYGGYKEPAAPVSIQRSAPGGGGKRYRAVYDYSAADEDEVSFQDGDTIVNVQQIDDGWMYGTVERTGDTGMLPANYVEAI
UniProt Q12907: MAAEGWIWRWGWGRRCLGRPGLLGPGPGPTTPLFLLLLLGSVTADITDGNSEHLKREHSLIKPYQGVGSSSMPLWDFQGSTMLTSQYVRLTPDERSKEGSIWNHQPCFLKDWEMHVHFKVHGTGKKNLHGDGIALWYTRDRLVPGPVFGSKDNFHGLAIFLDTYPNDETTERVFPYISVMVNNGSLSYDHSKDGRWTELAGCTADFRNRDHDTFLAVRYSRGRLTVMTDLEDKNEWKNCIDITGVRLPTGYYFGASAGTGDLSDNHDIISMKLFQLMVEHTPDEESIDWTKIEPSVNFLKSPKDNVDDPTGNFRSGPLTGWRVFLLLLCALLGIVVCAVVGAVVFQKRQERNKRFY
UniProt Q92539: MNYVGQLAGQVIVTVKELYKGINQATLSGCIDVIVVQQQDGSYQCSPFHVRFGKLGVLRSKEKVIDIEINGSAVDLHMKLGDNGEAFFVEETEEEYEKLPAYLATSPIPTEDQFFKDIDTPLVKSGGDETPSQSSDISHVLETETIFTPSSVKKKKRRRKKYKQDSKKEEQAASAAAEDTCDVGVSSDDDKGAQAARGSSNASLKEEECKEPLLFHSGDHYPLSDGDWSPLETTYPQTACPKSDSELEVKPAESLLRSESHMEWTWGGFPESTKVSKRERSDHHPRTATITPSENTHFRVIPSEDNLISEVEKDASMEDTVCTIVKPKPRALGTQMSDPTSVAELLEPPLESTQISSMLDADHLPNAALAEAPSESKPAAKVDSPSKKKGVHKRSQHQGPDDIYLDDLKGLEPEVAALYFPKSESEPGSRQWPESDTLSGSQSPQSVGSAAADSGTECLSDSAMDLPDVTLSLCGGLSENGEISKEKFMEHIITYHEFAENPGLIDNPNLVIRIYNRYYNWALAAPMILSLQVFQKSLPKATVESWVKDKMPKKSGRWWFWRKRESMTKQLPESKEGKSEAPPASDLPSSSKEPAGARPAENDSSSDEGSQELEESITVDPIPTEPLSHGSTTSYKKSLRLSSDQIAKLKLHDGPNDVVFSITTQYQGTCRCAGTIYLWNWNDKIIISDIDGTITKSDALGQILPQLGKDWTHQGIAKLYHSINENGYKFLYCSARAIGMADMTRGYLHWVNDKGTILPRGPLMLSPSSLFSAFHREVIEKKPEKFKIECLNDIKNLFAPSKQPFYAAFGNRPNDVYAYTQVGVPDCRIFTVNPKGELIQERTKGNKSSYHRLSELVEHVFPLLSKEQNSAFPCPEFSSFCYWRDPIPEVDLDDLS
UniProt Q96AG4: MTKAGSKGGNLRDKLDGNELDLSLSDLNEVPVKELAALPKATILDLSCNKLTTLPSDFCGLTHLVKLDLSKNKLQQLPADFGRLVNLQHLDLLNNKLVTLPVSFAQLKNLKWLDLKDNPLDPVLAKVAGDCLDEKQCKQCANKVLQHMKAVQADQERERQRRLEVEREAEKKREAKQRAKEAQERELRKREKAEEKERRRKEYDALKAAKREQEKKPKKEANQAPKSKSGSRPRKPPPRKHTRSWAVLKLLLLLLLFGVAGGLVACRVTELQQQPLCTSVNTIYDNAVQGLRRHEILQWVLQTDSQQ
UniProt P09382, whole entry, looked up: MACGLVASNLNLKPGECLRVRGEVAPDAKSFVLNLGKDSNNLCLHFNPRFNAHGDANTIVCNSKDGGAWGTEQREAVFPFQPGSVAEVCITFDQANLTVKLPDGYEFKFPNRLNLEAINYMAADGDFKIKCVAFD
UniProt P53671: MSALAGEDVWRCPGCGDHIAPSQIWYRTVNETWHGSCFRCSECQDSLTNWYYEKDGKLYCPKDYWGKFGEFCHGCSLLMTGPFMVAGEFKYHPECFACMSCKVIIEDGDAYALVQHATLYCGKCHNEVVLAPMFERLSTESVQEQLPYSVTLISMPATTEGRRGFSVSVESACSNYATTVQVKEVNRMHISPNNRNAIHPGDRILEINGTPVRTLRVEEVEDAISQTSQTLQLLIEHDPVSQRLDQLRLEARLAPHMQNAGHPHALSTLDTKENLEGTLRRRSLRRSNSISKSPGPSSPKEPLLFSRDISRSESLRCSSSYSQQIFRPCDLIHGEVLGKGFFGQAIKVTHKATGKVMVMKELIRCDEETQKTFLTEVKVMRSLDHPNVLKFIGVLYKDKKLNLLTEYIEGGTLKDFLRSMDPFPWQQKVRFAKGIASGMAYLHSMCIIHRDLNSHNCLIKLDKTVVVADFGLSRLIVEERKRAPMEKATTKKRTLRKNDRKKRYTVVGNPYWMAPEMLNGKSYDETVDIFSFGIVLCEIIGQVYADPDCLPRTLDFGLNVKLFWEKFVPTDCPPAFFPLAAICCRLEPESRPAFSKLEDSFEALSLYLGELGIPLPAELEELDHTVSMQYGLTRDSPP
UniProt Q8TCA0: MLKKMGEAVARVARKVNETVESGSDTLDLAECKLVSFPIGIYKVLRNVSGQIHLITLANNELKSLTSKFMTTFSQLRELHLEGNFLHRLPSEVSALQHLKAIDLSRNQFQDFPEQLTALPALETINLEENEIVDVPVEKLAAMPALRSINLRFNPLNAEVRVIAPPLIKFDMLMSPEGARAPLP
UniProt Q8N9N7: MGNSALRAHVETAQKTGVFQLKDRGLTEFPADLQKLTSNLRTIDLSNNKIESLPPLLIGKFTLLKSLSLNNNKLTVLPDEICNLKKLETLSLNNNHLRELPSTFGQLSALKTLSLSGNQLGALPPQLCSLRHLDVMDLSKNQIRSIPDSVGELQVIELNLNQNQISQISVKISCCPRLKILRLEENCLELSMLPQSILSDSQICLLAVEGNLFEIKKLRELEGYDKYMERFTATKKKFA
UniProt Q9NS86: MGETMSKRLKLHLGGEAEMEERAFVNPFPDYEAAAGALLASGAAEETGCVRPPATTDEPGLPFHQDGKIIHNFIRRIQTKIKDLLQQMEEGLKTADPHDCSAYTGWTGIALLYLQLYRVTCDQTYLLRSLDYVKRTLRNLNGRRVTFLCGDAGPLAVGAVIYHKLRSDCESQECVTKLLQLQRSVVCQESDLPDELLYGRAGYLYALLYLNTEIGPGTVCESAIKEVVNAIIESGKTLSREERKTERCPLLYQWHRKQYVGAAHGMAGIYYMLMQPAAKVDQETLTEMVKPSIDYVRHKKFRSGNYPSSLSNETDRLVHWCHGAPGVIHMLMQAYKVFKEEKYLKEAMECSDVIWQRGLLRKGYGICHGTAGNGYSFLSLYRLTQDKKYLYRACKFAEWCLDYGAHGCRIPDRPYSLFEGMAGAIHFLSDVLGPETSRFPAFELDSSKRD

The other results are listed elsewhere or left out.

Compound in the assay: CC[C@H](C)N1C=C(C2=C(C=C(C=C21)C3=CN=C(C=C3)N4CCNCC4)C(=O)NCC5=C(C=C(NC5=O)C)C)C
Put plainly: log2 fold change, soluble protein after heating vs DMSO (PISA); higher = thermal stabilisation; K562 cells, 10 uM, 30 min; active = over 0.2 and 3.5 SD of the protein, either way, in both replicates (recomputed). The method in brief:
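Soluble protein was quantified by TMTpro 16plex LC-MS/MS after channel sums were equalised. It was obtained as the supernatant after 21,000xg for 90 min from pooled aliquots of K562 cells (2×10^6 cells/mL, 10 μM compound, 30 min) heated for 3 min across 48°C-58°C and extracted in PBS with 0.5% NP-40 at 4°C. Thermal stability values are relative to control samples and come from duplicates. They are given as log2 fold changes.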
Take KYNU (UniProt Q16719): the log2 fold change is inactive: -0.02.

For the target KTN1 (UniProt Q86UP2), the log2 fold change is inactive: 0.028.

Consider LPIN3 isoform 2 (UniProt Q9BQK8), for which the log2 fold change was inactive: 0.04.

Regarding LDHA isoform 3 (UniProt P00338), the log2 fold change was inactive: -0.012.

KYAT3 (UniProt Q6YP21): the log2 fold change is inactive: -0.059.

On to LASP1 (UniProt Q14847), for which the log2 fold change is inactive: -0.032.

For the target LCLAT1 (UniProt Q6UWP7), the log2 fold change was inactive: 0.007.

Turning to LAMTOR4 (UniProt Q0VGL1), the log2 fold change is inactive: -0.046.

As for LLPH (UniProt Q9BRT6), the log2 fold change was inactive: -0.028.

For the target LMAN2 (UniProt Q12907), the log2 fold change was inactive: 0.011.

Take LPIN2 (UniProt Q92539): the log2 fold change was inactive: 0.059.

Consider LARP7 isoform 3 (UniProt Q4G0J3), for which the log2 fold change was inactive: 0.051.

For LLGL2 (UniProt Q6P1M3), the log2 fold change was inactive: 0.023.

LARS (UniProt Q9P2J5): the log2 fold change is inactive: 0.047.

In the case of LAMTOR5 (UniProt O43504), the log2 fold change was inactive: -0.009.

In the case of LRRC59 (UniProt Q96AG4), the log2 fold change is inactive: -0.018.

For LGALS1 (UniProt P09382), the log2 fold change is inactive: -0.031.

Regarding LIMK2 isoform 3 (UniProt P53671), the log2 fold change is inactive: -0.167.

As to LIN7A (UniProt O14910), the log2 fold change is inactive: 0.056.

For the target LRRC20 (UniProt Q8TCA0), the log2 fold change is inactive: 0.027.

For the target LRRC57 (UniProt Q8N9N7), the log2 fold change was inactive: 0.013.

Take LANCL2 (UniProt Q9NS86): the log2 fold change was inactive: -0.034.

For LMNA (UniProt P02545), the log2 fold change is inactive: 0.01.
